These results are taken from publication PMC4226694.

Sequences of proteins named here, by UniProt entry; tags and fusion partners are left off. Residues count along the entry.
UniProt P98170: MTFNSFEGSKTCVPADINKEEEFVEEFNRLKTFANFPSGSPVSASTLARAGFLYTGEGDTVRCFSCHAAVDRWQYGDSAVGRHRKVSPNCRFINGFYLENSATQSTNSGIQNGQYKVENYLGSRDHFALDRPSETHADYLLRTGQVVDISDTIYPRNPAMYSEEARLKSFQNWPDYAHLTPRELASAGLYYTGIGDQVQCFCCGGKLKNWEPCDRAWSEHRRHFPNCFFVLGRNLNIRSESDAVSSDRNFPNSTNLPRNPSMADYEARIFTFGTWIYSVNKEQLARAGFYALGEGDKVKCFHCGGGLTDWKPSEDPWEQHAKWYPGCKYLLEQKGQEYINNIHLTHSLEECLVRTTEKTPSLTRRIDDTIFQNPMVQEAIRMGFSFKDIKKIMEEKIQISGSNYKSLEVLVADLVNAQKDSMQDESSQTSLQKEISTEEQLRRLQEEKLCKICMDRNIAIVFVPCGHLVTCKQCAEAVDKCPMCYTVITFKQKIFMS
UniProt P05161, residues 1-157: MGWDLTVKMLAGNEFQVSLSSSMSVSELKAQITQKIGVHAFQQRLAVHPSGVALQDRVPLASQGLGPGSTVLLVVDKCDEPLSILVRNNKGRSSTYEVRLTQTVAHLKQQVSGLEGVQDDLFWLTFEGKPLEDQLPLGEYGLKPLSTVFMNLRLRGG
UniProt O15392: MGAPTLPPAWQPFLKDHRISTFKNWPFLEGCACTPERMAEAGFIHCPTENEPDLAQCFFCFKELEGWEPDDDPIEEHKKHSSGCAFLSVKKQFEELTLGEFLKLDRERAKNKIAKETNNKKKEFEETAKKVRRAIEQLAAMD

Results are given in words; binding and its absence hold for the method and conditions named. Binding seen in cells or lysates may run through a third protein. Some results given as binding are weak or reduced against the parent protein; the word gives no strength.

In this assay the target is X-linked inhibitor of apoptosis (XIAP) (UniProt P98170). The assay is described as follows: co-IP; cells transfected with the indicated plasmids; IP lysis buffer (20 mM Tris-HCl pH 8.0, 150 mM NaCl, 1 mM EDTA, 0.5% Nonidet P-40, 1 mM dithiothreitol); supernatants immunoprecipitated with anti-Flag at 4°C overnight; immunoblot with anti-myc, anti-HA, anti-Flag. In general terms: In western blotting, separated proteins are transferred to a membrane and probed.

As for “Interferon-stimulated Gene 15 (ISG15) (from UniProt P05161 1-157)”, the binding result is “binds”.

On to Survivin (from UniProt O15392 1-142), for which the binding result is “binds”.
